Binding data for six molecules are collected here from US20210017247A1.

Protein sequences, listed by entry. Tags and fused reporters are not part of them. Residues count along the entry.
UniProt P08575, residues 26-1306: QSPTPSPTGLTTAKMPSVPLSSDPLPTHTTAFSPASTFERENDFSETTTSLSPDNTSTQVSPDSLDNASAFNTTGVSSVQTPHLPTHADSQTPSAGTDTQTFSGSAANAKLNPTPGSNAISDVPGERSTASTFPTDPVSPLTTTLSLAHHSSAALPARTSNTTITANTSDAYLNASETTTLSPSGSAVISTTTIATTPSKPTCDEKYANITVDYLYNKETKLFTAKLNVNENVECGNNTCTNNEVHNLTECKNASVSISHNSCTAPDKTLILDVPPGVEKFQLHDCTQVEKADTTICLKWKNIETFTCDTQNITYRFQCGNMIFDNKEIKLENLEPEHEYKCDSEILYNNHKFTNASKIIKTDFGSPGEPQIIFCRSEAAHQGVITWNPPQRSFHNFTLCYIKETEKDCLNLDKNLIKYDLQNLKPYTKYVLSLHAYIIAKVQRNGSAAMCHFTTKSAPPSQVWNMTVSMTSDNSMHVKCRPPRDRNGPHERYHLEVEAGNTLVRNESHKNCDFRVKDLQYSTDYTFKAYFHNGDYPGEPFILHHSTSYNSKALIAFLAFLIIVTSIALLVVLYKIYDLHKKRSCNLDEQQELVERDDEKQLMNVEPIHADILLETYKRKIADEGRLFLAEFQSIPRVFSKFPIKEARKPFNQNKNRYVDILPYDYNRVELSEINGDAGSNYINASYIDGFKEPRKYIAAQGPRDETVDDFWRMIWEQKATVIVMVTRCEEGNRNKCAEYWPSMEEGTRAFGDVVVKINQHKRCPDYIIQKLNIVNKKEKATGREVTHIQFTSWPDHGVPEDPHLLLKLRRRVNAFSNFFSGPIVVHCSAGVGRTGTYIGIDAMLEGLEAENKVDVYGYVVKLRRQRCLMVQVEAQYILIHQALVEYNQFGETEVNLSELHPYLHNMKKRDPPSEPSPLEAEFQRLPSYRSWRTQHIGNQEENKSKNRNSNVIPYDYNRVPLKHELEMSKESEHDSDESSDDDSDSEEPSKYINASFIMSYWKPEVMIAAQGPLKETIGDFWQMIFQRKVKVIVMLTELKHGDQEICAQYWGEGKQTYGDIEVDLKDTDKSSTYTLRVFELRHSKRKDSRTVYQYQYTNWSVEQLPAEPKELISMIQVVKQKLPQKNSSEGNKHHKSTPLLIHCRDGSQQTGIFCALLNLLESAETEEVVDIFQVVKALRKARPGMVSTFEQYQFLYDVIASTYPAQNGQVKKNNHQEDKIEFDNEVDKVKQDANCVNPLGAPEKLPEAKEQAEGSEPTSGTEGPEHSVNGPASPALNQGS

For assay [1], the target named is human CD45 (human) (UniProt P08575). The experiment in a line: flow cytometry on activated human CD8 T cells.
For assay [2] the target is unchanged. As to the kind of experiment: soluble competitor in pulse bioassay on activated human CD8 T cells.
The target is the same in assay [3]. As to the kind of experiment: flow cytometry on T cells, detected through the hexahistidine tag.

Results are given in words; binding and its absence hold for the method and conditions named. Some entries that bind do so weakly or less than the wild type. For part of these data: Sequences can lack the tags named with a protein.

B1: hBC8(23) humanized BC8 antibody (IgG) (antibody, V domains shown)
VH: EVQLVESGGGLVQPGGSLRLSCAASGFDFSRYWMSWVRQAPGKGLEWIGEINPTSSTINFADSVKGRFTISRDNAKNSLYLQMNSVRDEDTAVYYCARGNYYRYGDAMDYWGQGTLVTVSS
VL: EIVLTQSPATLSLSLGERATISCRASKSVSTSGYSYLHWYQQKPGQAPKLLIYLASNRATGVPARFSGSGPGTDFTLTISSLEPEDFATYYCQHSRELPFTFGQGTKLEIK
As for B1, the binding result with human CD45 (human) [1] is “binds”.

B2: chBC8 chimeric IgG (antibody, V domains shown)
VH: QVQLVESGGGLVQPGGSLKLSCAASGFDFSRYWMSWVRQAPGKGLEWIGEINPTSSTINFTPSLKDKVFISRDNAKNTLYLQMSKVRSEDTALYYCARGNYYRYGDAMDYWGQGTSVTVSS
VL: DIVLTQSPASLAVSLGQRATISCRASKSVSTSGYSYLHWYQQKPGQPPKLLIYLASNLESGVPARFSGSGSGTDFTLNIHPVEEEDAATYYCQHSRELPFTFGSGTKLEIKR
Regarding B2, the binding result in the assay with human CD45 (human) [1] was “binds”.

B3: BC8 parental mouse monoclonal antibody (antibody, V domains shown)
VH: QVQLVESGGGLVQPGGSLKLSCAASGFDFSRYWMSWVRQAPGKGLEWIGEINPTSSTINFTPSLKDKVFISRDNAKNTLYLQMSKVRSEDTALYYCARGNYYRYGDAMDYWGQGTSVTVSS
VL: DIVLTQSPASLAVSLGQRATISCRASKSVSTSGYSYLHWYQQKPGQPPKLLIYLASNLESGVPARFSGSGSGTDFTLNIHPVEEEDAATYYCQHSRELPFTFGSGTKLEIK
Turning to B3, the binding entry with human CD45 (human) [2] is on record as “binds”.

B4: monomeric BC8scFv (hexahistidine tag) (scFv, not shown: small tags and cut ends)
scFv: QVQLVESGGGLVQPGGSLKLSCAASGFDFSRYWMSWVRQAPGKGLEWIGEINPTSSTINFTPSLKDKVFISRDNAKNTLYLQMSKVRSEDTALYYCARGNYYRYGDAMDYWGQGTSVTVSSGGGGSGGGGSGGGGSDIVLTQSPASLAVSLGQRATISCRASKSVSTSGYSYLHWYQQKPGQPPKLLIYLASNLESGVPARFSGSGSGTDFTLNIHPVEEEDAATYYCQHSRELPFTFGSGTKLEIK
In the case of B4, the binding result in the assay with human CD45 (human) [3] was “binds”.

B5: ch9.4 chimeric IgG (antibody, V domains shown)
VH: QVQLQQLGAELARPGASVKMSCKASGYTFTSYSIQWVKQRPGQGLEWIGYINPSSGYIKYNQHFRDRATLTADRSSSTAYMQLSSLTSEDSAVYYCARGNSGSFDYWGQGTTLTVSS
VL: DIVMTQAAPSVPVTPGESLSISCRSSKSLLHSSGITYLYWFLQRPGQSPQLLIYRMSNLASGVPDRFSGSGSGTAFTLRISRVEAEDVGVYYCMQHLEYPFTFGGGTKLEIK
B5: the binding entry in the assay with human CD45 (human) [1] is given as “binds”.

B6: ch4B2 chimeric IgG (antibody, V domains shown)
VH: QVQLQQSGAELARPGASVKMSCKASGYTFTSYTMQWVKQRPGQGLEWIGYINPSSGYIKYNQKFKDKVTLTADKSSTTAYMQLSRLTSEDSAVYYCARRGSYFFDFWGQGTSVTVSS
VL: DIVITQDELSNPVTSGESVSISCRSSKSLLYKDGKTYLNWFLQRPGQSPQLLIYLMSTRASGVSDRFSGSGSGTDFTLEISRVKAEDVGVYYCQQLVEYPFTFGGGTKLEVK
Regarding B6, the binding result with human CD45 (human) [1] is “binds”.
